# Source: the supplement of paper PMC9578143, “Small-Molecule Ebselen Binds to YTHDF Proteins Interfering with the Recognition of N^6-Methyladenosine-Modified RNAs” (ACS Pharmacology & Translational Science, 2022)
# The list shows a part of the results. Part of the spread comes from offsets between plates or batches.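 Hits were defined as a z-score below −3.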 Starred links: 1 amine or outer side, 2 acyl side, 3 side chain; linkers in the order of their positions; H or OH if unused. Positions of bridges follow the written chain, without caps; N, C: chain ends. Non-standard residues stand in square brackets, D forms with d. Residues, ends and D or L forms follow the SMILES beside them. ξ: configuration not given here. *: point of attachment. X1 = N=C1NCCC([C@H](N[*:1])C(=O)[*:2])N1; ΔAla(Z-3-ureido) = NC(=O)N/C=C(\N)C(=O)O; ξβ3hOrn = NCCCC(N)CC(=O)*; Dap = NC[C@H](N)C(=O)O
# Target: T1, YTHDF1 YTH domain (aa 365-554) (UniProt Q9BYJ9)
# T1 sequence (whole entry): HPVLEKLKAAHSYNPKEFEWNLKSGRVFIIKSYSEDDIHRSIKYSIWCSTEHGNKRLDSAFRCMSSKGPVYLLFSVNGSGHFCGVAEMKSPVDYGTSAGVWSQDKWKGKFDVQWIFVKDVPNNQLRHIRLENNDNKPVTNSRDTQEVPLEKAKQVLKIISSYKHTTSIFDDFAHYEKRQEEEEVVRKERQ
# Assay: tryptophan fluorescence intensity z-score (mean); higher = higher fluorescence, less quenching (negative = binding / quenching)
# Conditions: 10 µM
row,SMILES,tryptophan fluorescence intensity z-score
1,Oc1c(Cl)cc(Cl)c2cccnc12 (plate: M 7-8),inactive: -0.312
2,O=c1[nH]cnc2nc[nH]c12 (plate: M 17-18),inactive: 0.446
3,C[C@@](Cc1ccc(O)c(O)c1)(NN)C(=O)O (plate: M 13-14),inactive: 0.622
4,Nc1ncnc2c1ncn2[C@@H]1O[C@H](CO)[C@@H](O)[C@@H]1O (plate: M 5-6),inactive: -0.1
5,OC[C@@H](O)[C@@H](O[C@@H]1O[C@H](CO)[C@@H](O)[C@H](O)[C@H]1O)[C@H](O)[C@@H](O)CO (plate: M 19-20),inactive: 0.293
6,COc1cc(O)c2c(=O)cc(C)oc2c1CC=C(C)C (plate: M 13-14),inactive: -0.0137
7,COC1=CC(=O)C(O)=C/C1=C\C=C\c1ccccc1 (plate: M 15-16),inactive: -0.241
8,CC(=O)Nc1c(I)cc(I)c(C(=O)O)c1I (plate: M 9-10),inactive: 0.282
9,CC(=O)O[C@]1(C)CC[C@@]23C[C@H]1C(C)(C)[C@@H]2CC[C@H]3C (plate: M 17-18),inactive: 0.0193
10,Cc1cc2cc3c(C)cc(=O)oc3c(C)c2o1 (plate: M 5-6),inactive: -0.187
11,CC(=O)Nc1nnc(S(N)(=O)=O)s1 (plate: M 1-2),inactive: 0.168
12,CO/N=C(\C(=O)N[C@@H]1C(=O)N2C(C(=O)O)=C(COC(C)=O)CS[C@H]12)c1csc(N)n1 (plate: M 1-2),inactive: 0.443
13,COC(=O)c1c(OC)cc2c(c1C)Oc1c(Cl)c(O)c(Cl)c(C)c1C(=O)O2 (plate: M 15-16),inactive: -0.289
14,COc1cc(CNC(=O)CCCC/C=C/C(C)C)ccc1O (plate: M 7-8),inactive: -0.149
15,COC(=O)[C@H](Cc1ccccc1)NC(=O)[C@@H](N)CC(=O)O (plate: M 9-10) (H-Asp-Phe-OMe),inactive: 0.21
16,O=C(/C=C/c1ccc(O)c(O)c1)O[C@H](Cc1ccc(O)c(O)c1)C(=O)O (plate: M 23-24),inactive: -0.292
17,CCOC(=O)C(Cc1ccc(O)cc1)NC(C)=O (stereo unspecified) (plate: M 23-24),inactive: 0.48
18,CN[C@H]1CC[C@@H](c2ccc(Cl)c(Cl)c2)c2ccccc21 (plate: M 9-10),inactive: -0.697
19,C[C@@H]1CCC[C@H](C)N1NC(=O)c1ccc(Cl)c(S(N)(=O)=O)c1 (plate: M 9-10),inactive: -0.0917
20,Cc1ccc(-c2cc(C(F)(F)F)nn2-c2ccc(S(N)(=O)=O)cc2)cc1 (plate: M 9-10),inactive: -0.183
21,O=C1c2ccccc2C(=O)c2c(O)c(O)cc(O)c21 (plate: M 19-20),inactive: 0.336
22,CC(C)[N+]1(C)[C@@H]2CC[C@H]1C[C@@H](OC(=O)C(CO)c1ccccc1)C2 (stereo partly specified) (plate: M 3-4),inactive: 0.111

# Some of the entries so far, with bars between the fields.
row | SMILES | tryptophan fluorescence intensity z-score
12 | CO/N=C(\C(=O)N[C@@H]1C(=O)N2C(C(=O)O)=C(COC(C)=O)CS[C@H]12)c1csc(N)n1 (plate: M 1-2) | inactive: 0.443
13 | COC(=O)c1c(OC)cc2c(c1C)Oc1c(Cl)c(O)c(Cl)c(C)c1C(=O)O2 (plate: M 15-16) | inactive: -0.289
14 | COc1cc(CNC(=O)CCCC/C=C/C(C)C)ccc1O (plate: M 7-8) | inactive: -0.149
15 | COC(=O)[C@H](Cc1ccccc1)NC(=O)[C@@H](N)CC(=O)O (plate: M 9-10) (H-Asp-Phe-OMe) | inactive: 0.21
16 | O=C(/C=C/c1ccc(O)c(O)c1)O[C@H](Cc1ccc(O)c(O)c1)C(=O)O (plate: M 23-24) | inactive: -0.292

# Remaining list, next part

row,SMILES,tryptophan fluorescence intensity z-score
1,COc1cc2ccc(=O)oc2c(O)c1O (plate: M 19-20),inactive: -0.235
2,COC(=O)C(O)c1ccccc1 (stereo unspecified) (plate: M 15-16),inactive: 0.106
3,Nc1ccc(S(=O)(=O)Nc2nccs2)cc1 (plate: M 5-6),inactive: 0.0107
4,CC(C)CC(NC(=O)[C@H](C)N)C(=O)O (mixture of isomers) (plate: M 23-24),inactive: 0.535
5,O=C(O)C1=C(CSc2nnnn2CS(=O)(=O)O)CS[C@@H]2[C@H](NC(=O)[C@H](O)c3ccccc3)C(=O)N12 (plate: M 11-12),inactive: 0.174
6,O=C(Oc1cc(O)cc2c1C[C@@H](OC(=O)c1cc(O)c(O)c(O)c1)[C@@H](c1cc(O)c(O)c(O)c1)O2)c1cc(O)c(O)c(O)c1 (plate: M 21-22),inactive: -0.288
7,CCCCCCOc1ccccc1C(N)=O (plate: M 23-24),inactive: 1.22
8,O[C@H]1[C@H](O)[C@@H](O)C2OC[C@H]1O2 (plate: M 23-24),inactive: 0.426
9,NC[C@H](O)c1ccc(O)c(O)c1 (plate: M 3-4),inactive: -0.0468
10,CCN(CC)CCNC(=O)c1ccc(N)cc1 (plate: M 5-6),inactive: 0.0756
11,CC(=O)O[C@@H]1CC(=O)[C@@]2(C)C(CC(=O)[C@]3(C)C2CC[C@@]2(C)[C@H](c4ccoc4)OC(=O)C4OC423)C1(C)C (stereo partly specified) (plate: M 13-14),inactive: 0.325
12,CCOC(=O)c1c(C)cc(OC)cc1O (plate: M 15-16),inactive: 0.232
13,CCN(CC)CCOCCOC(=O)C1(c2ccccc2)CCCC1 (plate: M 7-8),inactive: 0.291
14,Cc1cc(C(C)(C)C)cc(C)c1CC1=NCCN1 (plate: M 5-6),inactive: -0.0754
15,CCN(CCCCOC(=O)c1ccc(OC)c(OC)c1)C(C)Cc1ccc(OC)cc1 (stereo unspecified) (plate: M 7-8),inactive: -0.0615
16,CC(C)(CO)[C@@H](O)C(=O)NCCC(=O)O [PANTOTHENICACID(d)Nasalt] (plate: M 13-14),inactive: 0.365
17,CC(=O)Nc1ccc(OC(=O)c2ccccc2O)cc1 (plate: M 21-22),inactive: 0.942
18,COc1cc2nc(N3CCN(C(=O)C4COc5ccccc5O4)CC3)nc(N)c2cc1OC (stereo unspecified) (plate: M 11-12),inactive: -0.678
19,O=C(O)c1cc(=O)c(O)c2c(O)c(O)c(O)cc2c1 (plate: M 21-22),inactive: -1.09
20,COC(=O)C[C@H]1C2(C)CC34OC5(C)O[C@@]6([C@H](OC(C)=O)C(OC(C)=O)[C@]7(C)C(/C(=C(/O)C(C)C)C(=O)O[C@H]7c7ccoc7)[C@@]6(O5)[C@H](OC(C)=O)[C@@]3(O)C2OC(=O)C(C)C)[C@]14C (stereo partly specified) (plate: M 13-14),inactive: 0.578
21,COc1cc(OC)c2ccc(=O)oc2c1 (plate: M 17-18),inactive: 0.017
22,Cc1cc(O)c2c(c1O)C(=O)c1c(O)cc(C)c(O)c1C2=O (plate: M 15-16),inactive: 0.646

row,SMILES,tryptophan fluorescence intensity z-score
1,CCCCC1C(=O)N(c2ccccc2)N(c2ccc(O)cc2)C1=O (stereo unspecified) (plate: M 3-4),inactive: 0.07
2,COc1ccc(-c2oc3cc(OC)c(OC)c(OC)c3c(=O)c2OC)cc1OC (plate: M 19-20),inactive: 0.254
3,CCOC(=O)Nc1nc2ccccc2[nH]1 (plate: M 11-12),inactive: 0.463
4,NC[C@H]1O[C@H](O[C@H]2[C@H](O)[C@@H](O[C@H]3O[C@H](CO)[C@@H](O)[C@H](N)[C@H]3O)[C@H](N)C[C@@H]2N)[C@H](N)C[C@@H]1O (plate: M 5-6),inactive: -0.0219
5,C[C@@H]1C/C=C/C=C/C=C/C=C/[C@H](O[C@@H]2O[C@H](C)[C@@H](O)[C@H](N)[C@@H]2O)C[C@@H]2O[C@](O)(C[C@@H](O)C[C@H]3O[C@@H]3/C=C/C(=O)O1)C[C@H](O)[C@H]2C(=O)O (plate: M 11-12),inactive: -0.403
6,O=C(O)C1=CC(=C(c2ccc(O)c(C(=O)O)c2)c2ccc(O)c(C(=O)O)c2)C=CC1=O (plate: M 23-24),active: -3.01
7,CN(C(=O)CN(CCO)CC(=O)N(C)C(C)(C)Cc1ccccc1)C(C)(C)Cc1ccccc1 (plate: M 9-10),inactive: -0.482
8,Cc1cc(C)nc(NS(=O)(=O)c2ccc(N)cc2)n1 (plate: M 5-6),inactive: -0.218
9,CC1(C)O[C@@H]2C[C@H]3[C@@H]4C[C@H](F)C5=CC(=O)C=C[C@]5(C)[C@@]4(F)[C@@H](O)C[C@]3(C)[C@]2(C(=O)CO)O1 (plate: M 3-4),inactive: -0.363
10,CC(C)=CCc1c2c(c3occ(-c4ccc(O)c(O)c4)c(=O)c3c1O)C=CC(C)(C)O2 (plate: M 15-16),inactive: 0.732
11,COc1cc(NS(=O)(=O)c2ccc(N)cc2)ncn1 (plate: M 7-8),inactive: 0.181
12,NCCC(=O)N[C@@H](Cc1c[nH]cn1)C(=O)O (plate: M 17-18),inactive: 0.613
13,CCCCCCNC(=O)n1cc(F)c(=O)[nH]c1=O (plate: M 23-24),inactive: 0.00195
14,C[C@@H]1NC(=O)[C@@H](N)CNC(=O)[C@H](C2CCNC(=N)N2)NC(=O)/C(=C/NC(N)=O)NC(=O)[C@H](CNC(=O)CC(N)CCCN)NC1=O.N=C1NCCC([C@@H]2NC(=O)/C(=C/NC(N)=O)NC(=O)[C@H](CNC(=O)CC(N)CCCN)NC(=O)[C@H](CO)NC(=O)[C@@H](N)CNC2=O)N1 (stereo partly drawn) (plate: M 1-2) (H-[Dap]S[Dap](ξβ3hOrn)[ΔAla(Z-3-ureido)][X1]; lactam 1-C),inactive: -0.0317
15,CC(C)=CCC1=C(O)C(=O)c2ccccc2C1=O (plate: M 17-18),inactive: 0.201
16,COc1ccc(Cl)cc1C(=O)NCCc1ccc(S(=O)(=O)NC(=O)NC2CCCCC2)cc1 (plate: M 13-14),inactive: 0.188
17,CO/N=C(\C(=O)N[C@@H]1C(=O)N2C(C(=O)OC(C)OC(C)=O)=C(COC(N)=O)CS[C@H]12)c1ccco1 (stereo partly specified) (plate: M 9-10),inactive: -0.158
18,O=c1cc(-c2ccccc2)oc2cccc(O)c12 (plate: M 17-18),inactive: -0.133
19,COC(=O)Nc1nc2cc([S+]([O-])c3ccccc3)ccc2[nH]1 (stereo unspecified) (plate: M 9-10),inactive: -0.183
20,C=CCCCCCCCCC(=O)[O-].C=CCCCCCCCCC(=O)[O-].[Zn+2] (plate: M 11-12),inactive: 0.504
21,COc1ccccc1OCC(O)COC(N)=O (stereo unspecified) (plate: M 3-4),inactive: 0.183
22,Nc1c2c(nc3ccccc13)CCCC2O (stereo unspecified) (plate: M 23-24),inactive: 0.452
